Test results from PubChem BioAssay AID2685 (National Center for Advancing Translational Sciences (NCATS), 2010).
The whole screen tested about 320,000 compounds, of which about 2,100 (0.66%) were called active. The inconclusive results got no clear call from the source; some entries with a clear call stand among them for comparison. Calls come from the whole dose curve; as a rule, active = well fitted inhibition curve with a large enough effect in the signal ratio, with a control signal flat (not every such curve was filed as active); inconclusive = small, poorly fitted or top-dose-only effect, or effect the other way, or a change in a side signal; inactive = flat fitted curve, though single readings scatter; the % refers to the signal ratio. Potencies beside an inconclusive call are fits to weak or partial responses and may not hold up. Where a SMILES comes first, the peptide text is derived from it. The star is where a group is joined. Cbz = O=C(OCc1ccccc1)*

Test: qHTS Assay for Lipid Storage Modulators in Drosophila S3 Cells
Conditions: BODIPY lipid droplet fluorescence, 18-24 h, cells fed with added oleic acid; lipid storage change, negative = inhibition: at 46.1 µM (top of the series) unless noted
How it was run: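 Drosophila S3 cells loaded with oleic acid (400 uM, as added) and compounds at several concentrations; lipid droplets imaged by 488-nm laser-scanning cytometry, 500–530 nm intensity and object ratio to cell channel. Percent activity normalized to 20 uM Triacsin C.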
% is set by controls: 0 for no effect and ±100 for the full control effect; potency is the fitted concentration of half-maximal effect.

Lipid storage change, negative = inhibition, inconclusive:
O=S(=O)(NCCOCC(F)(F)C(F)F)c1ccc2oc3ccccc3c2c1 22.1%
CN(C)C(CNC(=O)C1CCN(S(=O)(=O)c2cccc(C(F)(F)F)c2)CC1)c1ccccc1 (stereo unspecified) -14.5%
Cc1ccc(C(=O)NNC(=O)C(NC(=O)c2cccc(C)c2)C(C)C)cc1 (stereo unspecified) 14.9%
CCS(=O)(=O)N1CCCC(C(=O)NC2CCCC2)C1 (stereo unspecified) 6.23%
Cc1ccc(S(=O)(=O)N(CCC#N)C2CCCCC2)c2nsnc12 4.68%
COc1ccc(-c2noc(-c3ccc4c(c3)OCO4)n2)cc1 -23.9%
O=[N+]([O-])c1cccc(/C=N/N2CCN(Cc3ccc(Cl)cc3)CC2)c1 17.1%
COc1ccc(C(=O)N/N=C/c2ccc(N3CCOCC3)s2)cc1OC 29.8%
C[C@H](NS(=O)(=O)c1ccc2c(c1)OCCCO2)C(=O)N1CCN(Cc2ccc(C#N)cc2)CC1 15.6%
COc1ccc(NS(=O)(=O)c2ccc(NS(=O)(=O)c3cccs3)cc2)c(OC)c1 1.11%
CC(=O)OCC(=O)[C@@]1(O)CC[C@H]2[C@@H]3CCC4=CC(=O)C=C[C@]4(C)[C@H]3[C@@H](O)C[C@@]21C 3.42%

Lipid storage change, negative = inhibition, inactive:
Cc1cc(-c2nc(C)c(C(=O)NNC(=O)NC(C)C)s2)no1
COc1ccc(C2C(C(=O)c3ccco3)=C(O)C(=O)N2CC2CCCO2)c(OC)c1 (stereo unspecified)
CCN1CCCC1CNS(=O)(=O)c1c(C)cc(C)cc1C (stereo unspecified)

Potency, inconclusive:
NC(=O)c1oc2ccc(Cl)cc2c1NC(=O)CN1CCOCC1 1.46 µM [rising, partial curve]
O=C(Nc1ccc(Cl)c([N+](=O)[O-])c1)C(Sc1ccccc1)c1ccccc1 (stereo unspecified) 29.1 µM [falling, single point]
COc1cnc(-c2ccccn2)nc1N(C)c1ccccc1 29.1 µM [falling, single point]
COc1ccccc1NC(=O)Cc1noc(CN(C)Cc2cccs2)n1 29.1 µM [activator, partial curve, poor fit]
CC(C)[C@H](NC(=O)OCc1ccccc1)C(=O)N[C@@H](Cc1c[nH]c2ccccc12)C(=O)O (Cbz-Val-Trp-OH) 0.731 µM [activator, partial curve, poor fit]
O=C(O)COc1cccc2ccccc12 3.26 µM [falling, single point]
COc1ccccc1C(=O)NC1CCN(C(=O)Nc2ccc(C)cc2)CC1 7.31 µM [activator, partial curve]
